Results from the supplement of paper PMC10849652.
The other results are listed elsewhere or left out.

Chains of the proteins cited; added tags and fusions are not shown. Lines headed by an entry give the natural chain unless they say otherwise; changes in a name come on top.
UniProt P35606: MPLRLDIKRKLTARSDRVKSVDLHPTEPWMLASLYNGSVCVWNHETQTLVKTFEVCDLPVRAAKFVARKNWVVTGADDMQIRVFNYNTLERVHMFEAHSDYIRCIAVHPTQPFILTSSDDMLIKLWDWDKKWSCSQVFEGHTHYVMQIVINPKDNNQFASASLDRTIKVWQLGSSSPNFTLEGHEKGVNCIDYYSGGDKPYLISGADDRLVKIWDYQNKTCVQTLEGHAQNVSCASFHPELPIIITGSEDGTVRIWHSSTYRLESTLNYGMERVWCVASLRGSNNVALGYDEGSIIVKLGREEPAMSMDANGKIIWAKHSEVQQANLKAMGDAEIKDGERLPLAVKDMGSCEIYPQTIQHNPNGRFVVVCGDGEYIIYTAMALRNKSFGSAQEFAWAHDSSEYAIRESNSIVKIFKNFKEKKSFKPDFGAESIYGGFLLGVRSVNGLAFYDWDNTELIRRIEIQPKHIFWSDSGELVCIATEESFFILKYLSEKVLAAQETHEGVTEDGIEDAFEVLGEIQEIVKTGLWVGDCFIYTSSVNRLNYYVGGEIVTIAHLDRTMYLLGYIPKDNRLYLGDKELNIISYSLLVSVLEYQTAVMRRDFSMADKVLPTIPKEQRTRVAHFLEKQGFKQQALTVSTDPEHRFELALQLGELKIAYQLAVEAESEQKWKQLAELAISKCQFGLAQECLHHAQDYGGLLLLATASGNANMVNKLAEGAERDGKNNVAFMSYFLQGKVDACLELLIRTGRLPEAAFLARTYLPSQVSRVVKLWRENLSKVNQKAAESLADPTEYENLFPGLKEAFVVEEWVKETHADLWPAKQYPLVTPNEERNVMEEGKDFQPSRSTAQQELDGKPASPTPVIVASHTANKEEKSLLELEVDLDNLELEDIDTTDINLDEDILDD
UniProt O14579: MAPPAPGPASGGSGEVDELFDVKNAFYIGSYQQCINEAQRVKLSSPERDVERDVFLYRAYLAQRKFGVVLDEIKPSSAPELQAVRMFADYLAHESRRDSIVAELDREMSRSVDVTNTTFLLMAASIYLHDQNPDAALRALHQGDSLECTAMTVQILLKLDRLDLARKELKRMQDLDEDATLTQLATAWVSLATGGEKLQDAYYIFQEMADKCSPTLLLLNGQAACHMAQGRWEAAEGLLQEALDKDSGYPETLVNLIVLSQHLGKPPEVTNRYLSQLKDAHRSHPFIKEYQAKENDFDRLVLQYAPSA
UniProt Q7L5N1: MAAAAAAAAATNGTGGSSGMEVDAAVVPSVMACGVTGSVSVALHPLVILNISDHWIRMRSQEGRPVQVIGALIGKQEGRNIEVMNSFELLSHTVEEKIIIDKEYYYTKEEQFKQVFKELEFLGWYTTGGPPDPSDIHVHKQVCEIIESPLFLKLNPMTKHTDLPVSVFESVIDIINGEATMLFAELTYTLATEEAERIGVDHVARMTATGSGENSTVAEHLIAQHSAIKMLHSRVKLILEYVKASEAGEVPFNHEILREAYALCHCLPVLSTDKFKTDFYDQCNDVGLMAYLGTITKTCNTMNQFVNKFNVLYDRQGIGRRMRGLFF
UniProt Q9BSW2: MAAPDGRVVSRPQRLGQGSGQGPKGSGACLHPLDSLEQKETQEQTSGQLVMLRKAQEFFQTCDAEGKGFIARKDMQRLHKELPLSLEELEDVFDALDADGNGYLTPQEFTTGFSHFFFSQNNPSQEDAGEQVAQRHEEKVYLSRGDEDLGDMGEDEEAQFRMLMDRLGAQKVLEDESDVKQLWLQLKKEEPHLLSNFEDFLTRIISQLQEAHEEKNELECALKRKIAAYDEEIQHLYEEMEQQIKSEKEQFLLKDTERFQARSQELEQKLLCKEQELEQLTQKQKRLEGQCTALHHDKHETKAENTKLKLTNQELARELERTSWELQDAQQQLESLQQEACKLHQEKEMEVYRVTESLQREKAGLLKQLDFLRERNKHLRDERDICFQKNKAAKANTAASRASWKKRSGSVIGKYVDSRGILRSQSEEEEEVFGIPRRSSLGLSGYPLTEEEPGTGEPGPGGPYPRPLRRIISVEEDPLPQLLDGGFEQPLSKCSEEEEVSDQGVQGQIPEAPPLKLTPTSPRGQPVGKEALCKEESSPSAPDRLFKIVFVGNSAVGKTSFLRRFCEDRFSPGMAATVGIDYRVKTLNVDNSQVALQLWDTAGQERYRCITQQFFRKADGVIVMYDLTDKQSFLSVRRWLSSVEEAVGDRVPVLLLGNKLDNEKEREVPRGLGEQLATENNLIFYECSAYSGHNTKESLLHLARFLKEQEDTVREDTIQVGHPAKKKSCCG
UniProt P02511: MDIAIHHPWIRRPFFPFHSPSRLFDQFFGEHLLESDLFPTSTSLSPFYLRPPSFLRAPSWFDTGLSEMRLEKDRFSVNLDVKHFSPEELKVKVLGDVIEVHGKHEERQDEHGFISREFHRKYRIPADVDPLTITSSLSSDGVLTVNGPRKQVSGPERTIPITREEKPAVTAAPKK
UniProt Q9H0A8, whole entry, looked up: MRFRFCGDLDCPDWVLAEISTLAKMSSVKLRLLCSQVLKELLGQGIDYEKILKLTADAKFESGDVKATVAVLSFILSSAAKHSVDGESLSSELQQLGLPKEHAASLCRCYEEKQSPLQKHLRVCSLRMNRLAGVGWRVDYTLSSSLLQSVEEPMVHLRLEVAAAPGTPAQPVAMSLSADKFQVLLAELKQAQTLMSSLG
UniProt Q8IUI8: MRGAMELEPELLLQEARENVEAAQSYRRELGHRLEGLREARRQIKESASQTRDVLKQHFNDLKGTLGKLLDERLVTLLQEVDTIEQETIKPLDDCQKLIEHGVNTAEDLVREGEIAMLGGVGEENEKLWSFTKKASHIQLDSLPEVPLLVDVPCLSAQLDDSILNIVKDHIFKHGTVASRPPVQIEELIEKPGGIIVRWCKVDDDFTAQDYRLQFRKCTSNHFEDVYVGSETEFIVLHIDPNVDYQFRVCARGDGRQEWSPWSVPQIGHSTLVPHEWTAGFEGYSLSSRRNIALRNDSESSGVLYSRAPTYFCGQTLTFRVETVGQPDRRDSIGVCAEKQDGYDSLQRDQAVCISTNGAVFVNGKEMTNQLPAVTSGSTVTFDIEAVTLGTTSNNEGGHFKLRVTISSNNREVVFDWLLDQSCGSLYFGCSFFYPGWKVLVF
UniProt Q96FN4: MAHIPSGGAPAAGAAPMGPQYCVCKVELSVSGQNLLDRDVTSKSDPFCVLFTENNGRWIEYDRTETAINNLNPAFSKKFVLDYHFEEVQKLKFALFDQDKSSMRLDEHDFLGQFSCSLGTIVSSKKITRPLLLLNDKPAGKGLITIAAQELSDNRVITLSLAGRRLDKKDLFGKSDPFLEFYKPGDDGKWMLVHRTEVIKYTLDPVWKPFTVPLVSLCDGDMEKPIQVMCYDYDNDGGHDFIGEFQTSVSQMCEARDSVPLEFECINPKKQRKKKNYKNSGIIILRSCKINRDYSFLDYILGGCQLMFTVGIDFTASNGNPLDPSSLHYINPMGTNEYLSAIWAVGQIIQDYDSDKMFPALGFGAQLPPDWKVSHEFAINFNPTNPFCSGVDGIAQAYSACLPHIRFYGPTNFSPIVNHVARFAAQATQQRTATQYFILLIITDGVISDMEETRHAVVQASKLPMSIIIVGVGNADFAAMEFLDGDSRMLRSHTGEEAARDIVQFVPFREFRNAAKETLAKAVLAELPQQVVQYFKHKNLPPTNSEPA
UniProt Q8IYK4: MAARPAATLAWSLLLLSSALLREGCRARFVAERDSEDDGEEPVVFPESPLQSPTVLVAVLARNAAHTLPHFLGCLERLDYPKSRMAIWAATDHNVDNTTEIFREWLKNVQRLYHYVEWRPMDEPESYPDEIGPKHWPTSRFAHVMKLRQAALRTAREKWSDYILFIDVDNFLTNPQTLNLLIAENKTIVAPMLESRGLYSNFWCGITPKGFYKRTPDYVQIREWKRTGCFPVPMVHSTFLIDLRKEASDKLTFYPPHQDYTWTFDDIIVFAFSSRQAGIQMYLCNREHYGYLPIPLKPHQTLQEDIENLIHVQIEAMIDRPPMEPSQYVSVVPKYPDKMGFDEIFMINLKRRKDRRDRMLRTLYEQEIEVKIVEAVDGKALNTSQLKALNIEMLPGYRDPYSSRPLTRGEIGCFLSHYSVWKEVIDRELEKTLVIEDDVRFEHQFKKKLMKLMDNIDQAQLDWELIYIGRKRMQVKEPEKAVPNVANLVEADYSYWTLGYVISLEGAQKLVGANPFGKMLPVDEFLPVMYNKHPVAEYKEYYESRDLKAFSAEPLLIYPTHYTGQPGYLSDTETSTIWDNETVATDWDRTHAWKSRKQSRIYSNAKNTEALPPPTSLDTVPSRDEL
UniProt Q9H9Q2: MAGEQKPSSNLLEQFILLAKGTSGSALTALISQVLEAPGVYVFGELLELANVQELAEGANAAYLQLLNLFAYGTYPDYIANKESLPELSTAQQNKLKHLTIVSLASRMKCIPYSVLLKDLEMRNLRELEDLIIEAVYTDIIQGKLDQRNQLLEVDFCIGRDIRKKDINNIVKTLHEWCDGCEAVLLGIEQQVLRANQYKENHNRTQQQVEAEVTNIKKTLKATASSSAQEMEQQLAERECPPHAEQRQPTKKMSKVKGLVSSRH
UniProt Q9Y6G5, whole entry, looked up: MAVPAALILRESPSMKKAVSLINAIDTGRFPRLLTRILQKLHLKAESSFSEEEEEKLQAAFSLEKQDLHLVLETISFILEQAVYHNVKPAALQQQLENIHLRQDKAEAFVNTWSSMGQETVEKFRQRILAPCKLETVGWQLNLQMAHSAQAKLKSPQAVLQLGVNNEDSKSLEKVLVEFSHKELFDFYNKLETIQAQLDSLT
UniProt P41240: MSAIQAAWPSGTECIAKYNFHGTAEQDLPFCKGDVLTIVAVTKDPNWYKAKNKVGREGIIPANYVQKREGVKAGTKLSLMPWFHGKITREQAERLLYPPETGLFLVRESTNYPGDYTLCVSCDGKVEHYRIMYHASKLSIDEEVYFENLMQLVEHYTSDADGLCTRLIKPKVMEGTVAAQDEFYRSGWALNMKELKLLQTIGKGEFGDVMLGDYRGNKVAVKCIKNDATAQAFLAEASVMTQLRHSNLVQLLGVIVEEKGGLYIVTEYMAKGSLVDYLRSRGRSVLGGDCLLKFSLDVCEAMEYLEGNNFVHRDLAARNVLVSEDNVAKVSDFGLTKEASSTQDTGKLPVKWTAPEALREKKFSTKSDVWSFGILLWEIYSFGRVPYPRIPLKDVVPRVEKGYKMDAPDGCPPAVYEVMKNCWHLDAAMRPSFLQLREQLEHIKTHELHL
UniProt P20674, whole entry, looked up: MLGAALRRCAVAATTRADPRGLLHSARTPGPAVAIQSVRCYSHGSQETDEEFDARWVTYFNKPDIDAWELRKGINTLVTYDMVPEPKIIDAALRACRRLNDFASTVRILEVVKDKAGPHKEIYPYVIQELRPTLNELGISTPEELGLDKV
UniProt P48730: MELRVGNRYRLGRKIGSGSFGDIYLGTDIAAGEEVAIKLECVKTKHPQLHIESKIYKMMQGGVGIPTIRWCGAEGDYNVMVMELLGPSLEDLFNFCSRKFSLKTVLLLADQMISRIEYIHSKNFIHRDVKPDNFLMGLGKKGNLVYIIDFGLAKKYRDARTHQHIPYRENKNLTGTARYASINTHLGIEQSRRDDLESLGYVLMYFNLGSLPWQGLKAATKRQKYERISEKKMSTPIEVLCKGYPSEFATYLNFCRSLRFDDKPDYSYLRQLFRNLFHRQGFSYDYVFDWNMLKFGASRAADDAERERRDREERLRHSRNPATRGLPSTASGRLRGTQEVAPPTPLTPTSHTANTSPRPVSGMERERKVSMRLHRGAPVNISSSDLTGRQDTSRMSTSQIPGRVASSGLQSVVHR
UniProt Q5RI15: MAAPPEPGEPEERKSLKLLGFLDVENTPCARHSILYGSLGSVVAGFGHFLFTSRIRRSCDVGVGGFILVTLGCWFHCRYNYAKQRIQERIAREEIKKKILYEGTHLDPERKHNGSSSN
UniProt P14854, whole entry, looked up: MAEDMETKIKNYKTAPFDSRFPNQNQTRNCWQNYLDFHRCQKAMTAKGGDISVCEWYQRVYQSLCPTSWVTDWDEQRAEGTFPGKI

Tests used:
Assay in all cases: log2 fold change, soluble protein after heating vs DMSO (PISA); higher = thermal stabilisation; K562 cells, 10 uM, 30 min; active = over 0.2 and 3.5 SD of the protein, either way, in both replicates (recomputed)
[1] = compound: CS(=O)(=O)c1ccc(-c2cnc(N)c(C(=O)Nc3ccccc3)n2)cc1
Outline: (§1)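 K562 cells at 2×10^6 cells/mL were given 10 μM compound for 30 min. Aliquots then went through 3 min of heating across 48°C-58°C, were pooled, and were extracted in PBS with 0.5% NP-40 at 4°C, and the supernatant after 21,000xg for 90 min was quantified by TMTpro 16plex LC-MS/MS with channel sums equalised. Thermal stability relative to control samples, from duplicates, is given as log2 fold change.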

crizotinib = compound: C[C@@H](Oc1cc(-c2cnn(C3CCNCC3)c2)cnc1N)c1c(Cl)ccc(F)c1Cl [crizotinib]
Outline: as §1

[2] = compound: C[C@@H]1COCCN1C2=NC(=NC(=C2)C3(CC3)S(=O)(=O)C)C4=C5C=CNC5=CC=C4
Outline: as §1

[3] = compound: C[C@H](C1=CC=C(C=C1)C(=O)NC2=C3C=CNC3=NC=C2)N
Outline: as §1

duvelisib = compound: C[C@H](Nc1ncnc2nc[nH]c12)c1cc2cccc(Cl)c2c(=O)n1-c1ccccc1 [duvelisib]
Outline: as §1

gandotinib = compound: Cc1cc(Nc2cc(CN3CCOCC3)c3nc(C)c(Cc4ccc(Cl)cc4F)n3n2)n[nH]1 [gandotinib]
Outline: as §1

tozasertib = compound: Cc1cc(Nc2cc(N3CCN(C)CC3)nc(Sc3ccc(NC(=O)C4CC4)cc3)n2)n[nH]1 [tozasertib]
Outline: as §1

[4] = compound: Cc1cc(SCc2sc(-c3ccc(C(F)(F)F)cc3)nc2C)ccc1OCC(=O)O
Outline: as §1

doramapimod = compound: Cc1ccc(-n2nc(C(C)(C)C)cc2NC(=O)Nc2ccc(OCCN3CCOCC3)c3ccccc23)cc1 [doramapimod]
Outline: as §1

ispinesib = compound: Cc1ccc(C(=O)N(CCCN)[C@@H](c2nc3cc(Cl)ccc3c(=O)n2Cc2ccccc2)C(C)C)cc1 [ispinesib]
Outline: as §1

bafetinib = compound: Cc1ccc(NC(=O)c2ccc(CN3CC[C@H](N(C)C)C3)c(C(F)(F)F)c2)cc1Nc1nccc(-c2cncnc2)n1 [bafetinib]
Outline: as §1

[5] = compound: Cc1cccc(CC(=O)N2CCc3c2ccc(-c2cn(C)c4ncnc(N)c24)c3F)n1
Outline: as §1

nilotinib = compound: Cc1cn(-c2cc(NC(=O)c3ccc(C)c(Nc4nccc(-c5cccnc5)n4)c3)cc(C(F)(F)F)c2)cn1 [nilotinib]
Outline: as §1

[6] = compound: Cc1nc(Nc2n[nH]c3c2CN(C(=O)N[C@H](CN(C)C)c2ccccc2)C3(C)C)c2sccc2n1
Outline: as §1

dasatinib = compound: Cc1nc(Nc2ncc(C(=O)Nc3c(C)cccc3Cl)s2)cc(N2CCN(CCO)CC2)n1 [dasatinib]
Outline: as §1

[7] = compound: Cc1ncc(-c2ccnc(Nc3ccc(S(C)(=O)=O)cc3)n2)n1C(C)C
Outline: as §1

[8] = compound: Cn1cc(-c2ccc3c(c2)CCN3C(=O)Cc2cccc(C(F)(F)F)c2)c2c(N)ncnc21
Outline: as §1

[9] = compound: Cn1cc(-c2ccc3nnc(C(F)(F)c4ccc5ncccc5c4)n3n2)cn1
Outline: as §1

tipifarnib = compound: Cn1cncc1[C@@](N)(c1ccc(Cl)cc1)c1ccc2c(c1)c(-c1cccc(Cl)c1)cc(=O)n2C [tipifarnib]
Outline: as §1

mubritinib = compound: FC(F)(F)c1ccc(/C=C/c2nc(COc3ccc(CCCCn4ccnn4)cc3)co2)cc1 [mubritinib]
Outline: as §1

Measured: log2 fold change

COPB2 (UniProt P35606)
inactive: [1] 0.012 | crizotinib 0.039 | [2] -0.005 | [3] -0.026 | duvelisib 0.012 | gandotinib -0.034 | tozasertib -0.002 | [4] 0.005 | doramapimod -0.049 | ispinesib 0.1 | bafetinib -0.027 | [5] 0.012 | nilotinib -0.038 | [6] -0.021 | dasatinib -0.037 | [7] -0.001 | [8] 0.017 | [9] -0.019 | tipifarnib -0.031 | mubritinib 0.025

COPE (UniProt O14579)
inactive: [1] 0.031 | crizotinib 0.067 | [2] 0.092 | [3] 0.145 | duvelisib 0.048 | gandotinib 0.011 | tozasertib 0.073 | [4] -0.007 | doramapimod 0.01 | ispinesib 0.061 | bafetinib -0.007 | [5] -0.034 | nilotinib -0.013 | [6] -0.019 | dasatinib -0.03 | [7] -0.016 | [8] -0.076 | [9] -0.045 | tipifarnib 0.011 | mubritinib 0.046

COPS6 (UniProt Q7L5N1)
inactive: [1] 0.006 | crizotinib 0.004 | [2] 0.037 | [3] -0.154 | duvelisib -0.021 | gandotinib 0.031 | tozasertib 0.056 | [4] 0.021 | doramapimod -0.031 | ispinesib 0.137 | bafetinib -0.044 | [5] 0.094 | nilotinib 0.017 | [6] -0.033 | dasatinib -0.009 | [7] 0.002 | [8] -0.028 | [9] -0.03 | tipifarnib 0.016 | mubritinib 0.001

CRACR2A isoform 2 (UniProt Q9BSW2)
inactive: [1] 0.101 | crizotinib 0.142 | [2] -0.08 | [3] 0.021 | duvelisib 0.122 | gandotinib 0.016 | tozasertib -0.012 | [4] -0.028 | doramapimod -0.004 | ispinesib 0.104 | bafetinib 0.038 | [5] -0.022 | nilotinib 0.056 | [6] -0.075 | dasatinib 0.018 | [7] 0.136 | [8] -0.044 | [9] -0.016 | tipifarnib -0.003 | mubritinib 0.111

CRYAB (UniProt P02511)
inactive: [1] 0.12 | crizotinib -0.041 | [2] 0.067 | [3] 0.408 | duvelisib 0.046 | [4] 0.071 | doramapimod 0.081 | dasatinib -0.173 | [8] -0.152

COMMD4 (UniProt Q9H0A8)
inactive: [1] 0.089 | crizotinib 0.03 | [2] -0.114 | [3] 0.104 | duvelisib 0.029 | gandotinib -0.148 | tozasertib 0.135 | [4] 0.03 | doramapimod -0.078 | ispinesib -0.13 | bafetinib -0.054 | [5] 0.114 | nilotinib -0.078 | [6] -0.099 | dasatinib -0.12 | [7] 0.02 | [8] -0.056 | [9] -0.077 | mubritinib 0.031

CRLF3 (UniProt Q8IUI8)
inactive: [1] 0.053 | crizotinib -0.015 | [2] 0.048 | [3] 0.017 | gandotinib 0.016 | [4] 0.019 | doramapimod 0.138 | ispinesib -0.059 | bafetinib -0.032 | [5] -0.045 | nilotinib -0.043 | [6] -0.117 | dasatinib -0.145 | [7] 0.011 | [8] 0.025 | [9] 0.024 | tipifarnib -0.018 | mubritinib 0.032

CPNE2 (UniProt Q96FN4)
inactive: [1] 0.124 | crizotinib -0.034 | [2] 0.021 | [3] 0.055 | duvelisib -0.061 | gandotinib -0.315 | tozasertib 0.086 | [4] -0.141 | doramapimod -0.033 | ispinesib -0.017 | bafetinib -0.119 | [5] 0.132 | nilotinib 0.081 | [6] 0.067 | dasatinib 0.105 | [7] 0.053 | [8] 0 | [9] -0.018 | tipifarnib 0.09 | mubritinib 0.097

COLGALT2 (UniProt Q8IYK4)
inactive: [1] 0.024 | crizotinib 0.046 | [2] -0.052 | [3] 0.152 | duvelisib -0.074 | gandotinib 0.042 | tozasertib 0.019 | [4] 0.049 | doramapimod 0.065 | ispinesib -0.034 | bafetinib 0.078 | [5] 0 | nilotinib -0.013 | [6] 0.052 | dasatinib 0.017 | [7] -0.07 | [8] -0.089 | [9] -0.009 | tipifarnib 0.114 | mubritinib -0.15

COPS7B (UniProt Q9H9Q2)
inactive: [1] 0.029 | crizotinib 0.014 | [2] -0.097 | [3] -0.109 | duvelisib 0.022 | gandotinib -0.051 | tozasertib 0.035 | [4] -0.05 | doramapimod -0.058 | ispinesib 0.096 | bafetinib -0.03 | [5] 0 | nilotinib 0.046 | [6] -0.003 | dasatinib 0.017 | [7] 0.012 | [8] -0.001 | [9] -0.005 | tipifarnib -0.014 | mubritinib 0.007

COMMD10 (UniProt Q9Y6G5)
inactive: [1] 0.034 | crizotinib -0.039 | [2] 0.04 | [3] -0.15 | duvelisib 0.052 | gandotinib 0.15 | tozasertib 0.067 | [4] -0.005 | doramapimod 0.061 | ispinesib 0.054 | bafetinib -0.018 | [5] 0.078 | nilotinib 0.007 | [6] -0.005 | dasatinib -0.021 | [7] 0.002 | [8] 0.113 | [9] -0.061 | tipifarnib -0.064 | mubritinib 0.089

CSK (UniProt P41240)
inactive: [1] 0.082 | crizotinib -0.033 | [2] 0.112 | [3] -0.004 | gandotinib -0.018 | [4] 0.046 | doramapimod 0.003 | ispinesib -0.028 | bafetinib 0.088 | [5] 0.019 | nilotinib 0.126 | [6] -0.001 | dasatinib 0.137 | [7] 0.017 | [8] 0.019 | [9] -0.031 | tipifarnib -0.129 | mubritinib 0.107

COX5A (UniProt P20674)
active: ispinesib 0.411 | [9] 0.422
inactive: [1] -0.011 | crizotinib 0.245 | [2] 0.109 | [3] -0.092 | gandotinib 0.12 | [4] 0.011 | doramapimod -0.039 | bafetinib -0.079 | [5] -0.003 | nilotinib 0.067 | [6] -0.023 | dasatinib 0.06 | [7] -0.067 | [8] 0.109 | tipifarnib 0.103 | mubritinib 0.021

CRYM-AS1 (UniProt A6NIL9)
inactive: [1] 0.2 | crizotinib -0.077 | [2] -0.132 | [3] -0.08 | gandotinib -0.299 | [4] -0.024 | doramapimod -0.144 | ispinesib 0.022 | bafetinib 0.063 | [5] 0.048 | nilotinib -0.023 | [6] -0.426 | dasatinib -0.108 | [7] -0.28 | [8] -0.015 | [9] -0.189 | mubritinib 0.114

CSNK1D (UniProt P48730)
inactive: [1] 0.12 | crizotinib -0.103 | [2] -0.246 | [3] 0.055 | gandotinib 0.054 | [4] 0.069 | doramapimod 0.109 | ispinesib -0.116 | bafetinib 0.1 | [5] 0.064 | nilotinib -0.025 | [6] 0.073 | dasatinib 0.119 | [7] 0.241 | [8] -0.083 | [9] -0.042 | tipifarnib 0.051 | mubritinib -0.148

Reprinted from above (4 entries):
CSK (UniProt P41240)
inactive: [1] 0.082 | crizotinib -0.033 | [2] 0.112 | [3] -0.004 | gandotinib -0.018 | [4] 0.046 | doramapimod 0.003 | ispinesib -0.028 | bafetinib 0.088 | [5] 0.019 | nilotinib 0.126 | [6] -0.001 | dasatinib 0.137 | [7] 0.017 | [8] 0.019 | [9] -0.031 | tipifarnib -0.129 | mubritinib 0.107

COX5A (UniProt P20674)
active: ispinesib 0.411 | [9] 0.422
inactive: [1] -0.011 | crizotinib 0.245 | [2] 0.109 | [3] -0.092 | gandotinib 0.12 | [4] 0.011 | doramapimod -0.039 | bafetinib -0.079 | [5] -0.003 | nilotinib 0.067 | [6] -0.023 | dasatinib 0.06 | [7] -0.067 | [8] 0.109 | tipifarnib 0.103 | mubritinib 0.021

CRYM-AS1 (UniProt A6NIL9)
inactive: [1] 0.2 | crizotinib -0.077 | [2] -0.132 | [3] -0.08 | gandotinib -0.299 | [4] -0.024 | doramapimod -0.144 | ispinesib 0.022 | bafetinib 0.063 | [5] 0.048 | nilotinib -0.023 | [6] -0.426 | dasatinib -0.108 | [7] -0.28 | [8] -0.015 | [9] -0.189 | mubritinib 0.114

CSNK1D (UniProt P48730)
inactive: [1] 0.12 | crizotinib -0.103 | [2] -0.246 | [3] 0.055 | gandotinib 0.054 | [4] 0.069 | doramapimod 0.109 | ispinesib -0.116 | bafetinib 0.1 | [5] 0.064 | nilotinib -0.025 | [6] 0.073 | dasatinib 0.119 | [7] 0.241 | [8] -0.083 | [9] -0.042 | tipifarnib 0.051 | mubritinib -0.148

(listing goes on)

COX20 isoform 2 (UniProt Q5RI15)
inactive: [1] -0.043 | crizotinib 0.063 | [2] -0.098 | [3] 0.01 | gandotinib -0.385 | [4] -0.001 | doramapimod -0.001 | ispinesib -0.017 | bafetinib -0.072 | [5] -0.241 | nilotinib 0.017 | [6] 0.012 | dasatinib 0.049 | [7] 0.009 | [8] -0.044 | [9] 0.023 | tipifarnib -0.069 | mubritinib -0.092

COX6B1 (UniProt P14854)
active: [9] 0.377
inactive: [1] -0.001 | crizotinib 0.184 | [2] 0.195 | [3] 0 | gandotinib -0.027 | [4] 0 | doramapimod -0.06 | ispinesib 0.226 | bafetinib -0.081 | [5] -0.023 | nilotinib -0.02 | [6] -0.01 | dasatinib 0.019 | [7] -0.027 | [8] 0.228 | tipifarnib -0.044 | mubritinib 0.054
